PubChem BioAssay AID743121 | NCATS | 2013

Assay: 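Knock-downs that sensitise breast cancer cells to camptothecin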 (primary screen)
Cell system: MDA-MB-231 cells, a human breast cancer line
Reagents: single siRNA against human genes, 20 nM siRNA (0.8 pmol per well)
Timing: 120 h (drug added 48 h after transfection, read 72 h later)
Conditions: camptothecin 20 nM (about EC30) for 72 h; vehicle 0.1% DMSO in parallel plates
Measured: 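Cell viability by ATP luminescence (CellTiter-Glo) as % of non-targeting siRNA wells, and the log2 ratio of viability without drug over viability with camptothecin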
Reading the numbers: log2 vehicle/camptothecin viability: higher = stronger sensitisation to camptothecin; viability with camptothecin and viability without drug: higher = more viable cells
Call rule: 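Active genes have an RSA gene-level p-value below 0.001, computed from the ratios of their separate siRNAs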
In all, the deposit lists about 26,000 reagents; shown is a random part of them. Over the whole deposit, 167 (0.63%) are marked active. 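Calls are per gene from RSA p-values that are not deposited; an individual active-marked siRNA can sensitise only weakly.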 Reagents against one gene are numbered here.

gene symbol	siRNA no.	log2 vehicle/camptothecin viability	viability with camptothecin (% of control)	viability without drug (% of control)	call
CRY2	1	-0.448	39.1	28.7	inactive
CRY2	2	-0.265	72.2	60.1	inactive
CRY2	3	-0.183	102	89.5	inactive
CRY2	4	-0.0787	108	102	inactive
TRPC7	1	-0.257	119	99.3	inactive
TRPC7	2	0.00557	102	103	inactive
TRPC7	3	-0.531	28.7	19.9	inactive
TRPC7	4	1.06	17.5	36.4	inactive
ACRV1	1	0.638	53.8	83.7	inactive
ACRV1	2	-0.15	114	103	inactive
ACRV1	3	-0.0585	100	96.2	inactive
ACRV1	4	-0.296	71.4	58.1	inactive
TMUB2	1	-0.346	109	85.7	inactive
TMUB2	2	-0.193	102	89.7	inactive
TMUB2	3	0.101	76.2	81.8	inactive
TMUB2	4	-0.0626	95	91	inactive
SLC13A3	1	0.96	45.9	89.3	inactive
SLC13A3	2	0.282	81.1	98.6	inactive
SLC13A3	3	-0.123	106	97.5	inactive
SLC13A3	4	-0.00534	95.2	94.9	inactive
IFNL2	1	-0.0832	46.4	43.8	inactive
IFNL2	2	-0.304	66.1	53.6	inactive
IFNL2	3	0.164	55.6	62.3	inactive
IFNL2	4	-0.475	6.41	4.61	inactive
IFNL2	5	-0.127	116	106	inactive
IFNL2	6	-0.309	88.4	71.3	inactive
SLC6A19	1	-0.92	72.8	38.5	inactive
SLC6A19	2	-0.0485	98.4	95.2	inactive
SLC6A19	3	0.115	37.4	40.5	inactive
SLC6A19	4	-0.313	126	101	inactive
